Results deposited as PubChem BioAssay AID1671195 (Yale University, 2021)
Screen: 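Genes whose knockdown alters LDL uptake in liver cancer cells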 (primary screen). Cells: human Huh7 hepatoma cells. Knock-down reagent: siRNA pool against human genes, 18 nM. Timing: about 2 to 2.5 days of knockdown, then 8 h LDL uptake. Treatment: DiI-labelled LDL at 30 µg/ml for 8 h, in lipoprotein-deficient serum medium. Measurement: 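Fluorescent LDL signal imaged in cells, scaled to the plate median, robust z-score for each replicate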. Scale: robust z-score: higher = more LDL uptake after knockdown. Active means: 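Active when two or more replicates show a robust z-score above 2 or below -2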.
This is a random part of about 22,000 reagents. Of all reagents, about 1,510 (6.9%) were called active. 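Active includes knockdowns raising or lowering LDL uptake; positive z-scores mean more uptake, negative mean less.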 A number with no mark means an inactive call.

{"gene symbol": "FER (FER tyrosine kinase)", "robust z-score, replicate 1": 2.38, "robust z-score, replicate 2": 0.957, "robust z-score, replicate 3": 1.01}
{"gene symbol": "MS4A1 (membrane spanning 4-domains A1)", "robust z-score, replicate 1": -0.404, "robust z-score, replicate 2": 0.253, "robust z-score, replicate 3": -0.442}
{"gene symbol": "NBPF4 (NBPF member 4)", "robust z-score, replicate 1": 0.0852, "robust z-score, replicate 2": -0.27, "robust z-score, replicate 3": -0.00584}
{"gene symbol": "ZUP1 (zinc finger containing ubiquitin peptidase 1)", "robust z-score, replicate 1": 0.381, "robust z-score, replicate 2": -0.54, "robust z-score, replicate 3": -0.0157}
{"gene symbol": "STK38L (serine/threonine kinase 38 like)", "robust z-score, replicate 1": -0.232, "robust z-score, replicate 2": 0.35, "robust z-score, replicate 3": 0.456}
{"gene symbol": "WDR18 (WD repeat domain 18)", "robust z-score, replicate 1": 1.96, "robust z-score, replicate 2": 1.73, "robust z-score, replicate 3": 1.4}
{"gene symbol": "ARID3C (AT-rich interaction domain 3C)", "robust z-score, replicate 1": 0.517, "robust z-score, replicate 2": -0.646, "robust z-score, replicate 3": -0.624}

2 successive entries from above, quoted:
{"gene symbol": "NBPF4 (NBPF member 4)", "robust z-score, replicate 1": 0.0852, "robust z-score, replicate 2": -0.27, "robust z-score, replicate 3": -0.00584}
{"gene symbol": "ZUP1 (zinc finger containing ubiquitin peptidase 1)", "robust z-score, replicate 1": 0.381, "robust z-score, replicate 2": -0.54, "robust z-score, replicate 3": -0.0157}

More entries:
{"gene symbol": "MINDY2 (MINDY lysine 48 deubiquitinase 2)", "robust z-score, replicate 1": 0.828, "robust z-score, replicate 2": 0.732, "robust z-score, replicate 3": 1.48}
{"gene symbol": "ZNF324B (zinc finger protein 324B)", "robust z-score, replicate 1": -1.41, "robust z-score, replicate 2": -1.3, "robust z-score, replicate 3": -0.774}
{"gene symbol": "ADORA2A (adenosine A2a receptor)", "robust z-score, replicate 1": 0.911, "robust z-score, replicate 2": 0.499, "robust z-score, replicate 3": 0.262}
{"gene symbol": "SLC10A3", "robust z-score, replicate 1": 0.714, "robust z-score, replicate 2": 0.724, "robust z-score, replicate 3": 0.297}
{"gene symbol": "RBFOX2 (RNA binding fox-1 homolog 2)", "robust z-score, replicate 1": -1.47, "robust z-score, replicate 2": -0.859, "robust z-score, replicate 3": -1.57}
